# Results: US20160130293A1, “NOVEL COMPOUND DERIVED FROM PLANT OF GENUS QUAMOCLIT AND COMPOSITION CONTAINING SAME AS ACTIVE INGREDIENT FOR PREVENTING OR TREATING DIABETES” (KOREA RESEARCH INSTITUTE BIOSCIENCE, priority 2013, published 2016)
# Test: Body weight of diabetic mice in 4-week study
# Type: in vivo, mouse
# Conditions: DB/DB mice, 1 mg/kg oral daily for 4 weeks
# Method: 6-week-old mice (Male C57BL/6J mouse, 20 g, Central Lab. Animal Inc., Seoul) and 6-week-old diabetic mice (Male C57BL/Ks DB/DB mouse, 20 g, Central Lab. Animal Inc., Seoul) were purchased and acclimated under constant temperature (25° C.) and humidity (50%) for 1 week and used for the experiment.
# Mice were classified into a normal mouse control group, a diabetic mouse control group, a diabetic mouse group treated with drug (glimepiride), a diabetic mouse group treated with the Quamoclit angulata-derived novel compound (KRIBB-BH-P, 1 mg/kg), and a diabetic mouse group treated with the Quamoclit angulata-derived novel compound (KRIBB-BH-SFP, 1 mg/kg), each group consisting of five mice. The treated mice were orally administered with the drug and compounds daily for 4 weeks. The change in blood glucose in mice of each group was measured every week, and after 4 weeks, blood was collected from each mouse to measure the concentration of glycated hemoglobin. […]
row,SMILES,Final Weight [g]
1,CCCCCC(CCCC(O)CC(=O)O)OC1OC(COC2OC(C)C(OC3CC(O)C(O)C(C)O3)CC2O)C(O)C(O)C1OC1CC(O)C(OC2CC(O)C(OC3CC(O)C(OC)C(C)O3)C(C)O2)C(C)O1 (centres unmarked) [KRIBB-BH-P],49.9 ± 0.38
2,CCCCCC(CCCC(O)CC(=O)O)OC1OC(C)C(O)C(O)C1O (centres unmarked) [KRIBB-BH-SFP],49.8 ± 1.88
